# Measurements as given in article PMC9260921, “Design and Synthesis of Carbothioamide/Carboxamide-Based Pyrazoline Analogs as Potential Anticancer Agents: Apoptosis, Molecular Docking, ADME Assay, and DNA Binding Studies” (ACS Omega, 2022).
# Assays:
# Assay type in all cases: cell-based
# [1] = system: human lung cancer cell (A549); assay: MTT cytotoxicity assay, A549; details: HFL-1 vs A549
# Procedure: (§1) The American type culture collection (ATCC, USA) provided human lung cancer cell line (A549), cervical cancer cell line (HeLa), and human primary normal lung cells (HFL-1) for this investigation. In a water-jacketed cell culture incubator, all of these cell types were cultured according to conventional culture conditions at 37 °C with 5% CO2. These cells were cultured in appropriate cell culture media. A549 cells were grown in DMEM media with 2 mM glutamine, HeLa cells were grown in Eagle’s minimum essential medium (EMEM) as recommended, whereas HFL-1 cells were also grown in F-12K. Fetal bovine serum 10% (FBS) was added to the entire medium. At a rate of 8000 cells were seeded in triplicate in a single 96-well plate for the MTT technique of cell death investigation. […] After the treatment period was finished, the media was removed, and each well was gently washed three times with PBS to clear any remaining residue just before the experiment. […] A hybrid multi-mode plate reader (BioTek, USA) with a microplate reader was used to measure absorbance at 570 nm. The percentage inhibition was calculated using eq 1: [drawing 1] […]
# (§2) With all of the experimental drugs, we conducted the MTT assay three times. Prism8 software (GraphPad) was used to determine the IC50 values of the various drugs, which were then expressed as a drug concentration (μM).
# [2] = system: human cervical cancer cell (HeLa); assay: MTT cytotoxicity assay, HeLa; details: HFL-1 vs HeLa
# Procedure: as §1, §2
# [3] = system: human primary normal lung cells (HFL-1); assay: MTT cytotoxicity assay, HFL-1; details: HFL1, 24 h treatment
# Procedure: The American type culture collection (ATCC, USA) provided human lung cancer cell line (A549), cervical cancer cell line (HeLa), and human primary normal lung cells (HFL-1) for this investigation. In a water-jacketed cell culture incubator, all of these cell types were cultured according to conventional culture conditions at 37 °C with 5% CO2. These cells were cultured in appropriate cell culture media. A549 cells were grown in DMEM media with 2 mM glutamine, HeLa cells were grown in Eagle’s minimum essential medium (EMEM) as recommended, whereas HFL-1 cells were also grown in F-12K. Fetal bovine serum 10% (FBS) was added to the entire medium. At a rate of 8000 cells were seeded in triplicate in a single 96-well plate for the MTT technique of cell death investigation. […]. After the treatment period was finished, the media was removed, and each well was gently washed three times with PBS to clear any remaining residue just before the experiment. […] A hybrid multi-mode plate reader (BioTek, USA) with a microplate reader was used to measure absorbance at 570 nm. The percentage inhibition was calculated using eq 1: [drawing 1] […]
# as §2
compound,measurement,setting,value
"CN[C@@H]1C[C@H]2O[C@@](C)([C@@H]1OC)n1c3ccccc3c3c4c(c5c6ccccc6n2c5c31)C(=O)NC4 [STS, Staurosporine, reference compound]",Selectivity Index A549,[1],1.0
same,Selectivity Index HeLa,[2],1.1
same,IC50,[3],62.86 ± 0.17 µM
